# Record: PubChem BioAssay AID504793 (Drosophila RNAi Screening Center, 2011)
# Test: 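Whole-genome screen for parts of the DNA damage checkpoint at G2/M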 (primary screen)
# Cell system: Drosophila S2R+ cells
# Reagents: long dsRNA against Drosophila genes, about 0.25 µg dsRNA per well
# Time to read-out: 4 days of dsRNA, then 4 hours of drug before read-out
# Treatment: doxorubicin 0.5 µM for 4 hours to cause double-strand breaks, in cells also given a low, harmless dose of dsRNA against nbs to sensitise the assay
# Detection: 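Mitotic index as the number of phospho-histone H3-positive cells in each well following doxorubicin, given as raw counts without normalisation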
# Direction: mitotic cells: higher = more cells in mitosis, weaker G2 arrest
# Rule for the call: 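a call needs confirmation in secondary tests, with other dsRNAs and a check of mitotic timing without damage, not just a high primary count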
# Meaning of the calls: active = confirmed in follow-up tests; inactive = not confirmed
# The deposit covers about 23,000 reagents; shown is a random part of those with a known target gene and a result. In the full data, 62 (0.27%) got an active call. 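Calls come from follow-up tests whose scores are not deposited, so confirmed genes may have low counts here; counts are not normalised per plate.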 Raw values are not corrected between plates. A number with no mark means an inactive call. A plus sign joins genes that one reagent is predicted to hit. Reagent sequences are not shown.
gene knocked down,DRSC id,"mitotic cells, replicate 1"
CG30002 (GeneID 246384),DRSC05182,1
CG30002 (GeneID 246384),DRSC24738,14
CG14143 (GeneID 39256),DRSC10146,4
CG14143 (GeneID 39256),DRSC26503,9
CG14292 (GeneID 42264),DRSC14772,14
Nmt (GeneID 38909),DRSC11236,5
ImpL2 (GeneID 38513),DRSC08666,4
ImpL2 (GeneID 38513),DRSC28691,1
flip (GeneID 40539),DRSC12326,7
CG15580 (GeneID 40743),DRSC12266,3
CG15580 (GeneID 40743),DRSC24180,7
CG30431 (GeneID 35549),DRSC04902,2
CG30431 (GeneID 35549),DRSC04904,11
ND-13A (GeneID 33744),DRSC03110,3
ND-13A (GeneID 33744),DRSC29397,4
Ilp8 (GeneID 39909),DRSC10076,4
Pepck2 (GeneID 37130),DRSC06013,8
Pepck2 (GeneID 37130),DRSC26167,3
dj (GeneID 40838),DRSC12625,6
dj (GeneID 40838),DRSC25525,8
dnc (GeneID 31309),DRSC17759,6
dnc (GeneID 31309),DRSC17911,14
dnc (GeneID 31309),DRSC18764,13
CG9592 (GeneID 39585),DRSC11078,4
CG17068 (GeneID 33024),DRSC20545,4
CG13722 (GeneID 38555),DRSC08331,5
CG13722 (GeneID 38555),DRSC21616,10
CG13722 (GeneID 38555),DRSC24663,4
Swip-1 (GeneID 35158),DRSC02083,7
Swip-1 (GeneID 35158),DRSC02084,4
SppL (GeneID 43128),DRSC15228,7
CngA (GeneID 36806),DRSC06580,4
CngA (GeneID 36806),DRSC07362,6
CngA (GeneID 36806),DRSC23533,4
CG8562 (GeneID 38828),DRSC10995,2
CG8562 (GeneID 38828),DRSC28778,3
CG13917 (GeneID 38186),DRSC08386,12
CG13917 (GeneID 38186),DRSC26895,9
fidipidine (GeneID 36808),DRSC07618,6
fidipidine (GeneID 36808),DRSC25394,10
CG16959 (GeneID 39648),DRSC10230,6
Fancm (GeneID 42543),DRSC16348,12
CG14626 (GeneID 31064),DRSC18631,13
CG14626 (GeneID 31064),DRSC27786,5
P5cr-2 (GeneID 42106),DRSC15889,11
S6KL (GeneID 45970),DRSC19349,19
S6KL (GeneID 45970),DRSC23147,13
TrpA1 (GeneID 39015),DRSC10544,1
Cpr57A + Obp57d,DRSC06708,11
Cpr57A + Obp57d,DRSC22719,11
S-Lap7 (GeneID 36524),DRSC06374,2
S-Lap7 (GeneID 36524),DRSC27414,6
SelR (GeneID 41309),DRSC16071,7
Lcp65Ab2 + Lcp65Ab1,DRSC10340,5
Lcp65Ab2 + Lcp65Ab1,DRSC10343,4
Lcp65Ab2 + Lcp65Ab1,DRSC29739,5
tomb + Cap-D3,DRSC27851,4
Trf4-2 (GeneID 42983),DRSC15237,10
Trf4-2 (GeneID 42983),DRSC25949,8
Hmgcr (GeneID 42803),DRSC16704,22
Jhbp16 (GeneID 42552),DRSC15039,16
CG11899 (GeneID 46391),DRSC16656,6
CG16815 (GeneID 34725),DRSC02521,11
CG16815 (GeneID 34725),DRSC28136,2
gfzf (GeneID 40858),DRSC12506,9 (active)
gfzf (GeneID 40858),DRSC21874,7 (active)
CG7567 (GeneID 43479),DRSC16258,16
CG15358 (GeneID 33366),DRSC00388,9
Mis12 (GeneID 38762),DRSC10299,5
CG8750 (GeneID 50285),DRSC11037,4
Tsp42Ei (GeneID 35618),DRSC06189,6
Tsp42Ei (GeneID 35618),DRSC26994,4
CG10472 (GeneID 38688),DRSC09730,3
CG10472 (GeneID 38688),DRSC25310,7
CG32713 (GeneID 318166),DRSC22766,11
Kua (GeneID 35300),DRSC02100,1
Sgt (GeneID 35052),DRSC02812,4
Sgt (GeneID 35052),DRSC25360,4
scramb1 (GeneID 326186),DRSC09724,2
scramb1 (GeneID 326186),DRSC10667,3
scramb1 (GeneID 326186),DRSC10668,4
CG12523 (GeneID 39216),DRSC09895,8
CG12523 (GeneID 39216),DRSC25151,3
CG9577 (GeneID 33016),DRSC20693,13
CG9577 (GeneID 33016),DRSC27691,10
CG5250 (GeneID 42308),DRSC15752,10
CG16812 (GeneID 34722),DRSC02519,5
CG16812 (GeneID 34722),DRSC25180,5
CG11815 (GeneID 38263),DRSC08209,11
CG11815 (GeneID 38263),DRSC27752,7
CG5177 (GeneID 34017),DRSC02824,3
CG30385 (GeneID 246585),DRSC06031,7
CG4593 (GeneID 31649),DRSC18374,7
CG4593 (GeneID 31649),DRSC29173,3
lncRNA:CR42862 + CG33229,DRSC08497,3
shn (GeneID 36171),DRSC05266,20
shn (GeneID 36171),DRSC07681,7
nAChRalpha6 (GeneID 34304),DRSC01096,3
nAChRalpha6 (GeneID 34304),DRSC02738,8
Hsp60B (GeneID 48572),DRSC00542,6
CG14383 (GeneID 41593),DRSC14841,4
CG13870 (GeneID 37308),DRSC06429,4
Arf6 (GeneID 36699),DRSC05921,6
CG18367 (GeneID 37255),DRSC06545,6
CG18367 (GeneID 37255),DRSC28507,4
GstD5 (GeneID 48338),DRSC16686,3
GstD5 (GeneID 48338),DRSC25144,4
CG8272 (GeneID 35875),DRSC07134,5
CG31174 (GeneID 318616),DRSC13518,8
CG32107 (GeneID 317856),DRSC09221,39

Entries above marked active (2):
gene knocked down,DRSC id,"mitotic cells, replicate 1"
gfzf (GeneID 40858),DRSC12506,9 (active)
gfzf (GeneID 40858),DRSC21874,7 (active)
